Measurements published in patent US20170226172A1.
Results are given in words; binding and its absence hold for the method and conditions named. Some results given as binding are weak or reduced against the parent protein; the word gives no strength.

Amino acid sequences for entries named in this document (tags omitted). A change or cut given only in a name is not applied to a line headed by its entry.
UniProt P11362: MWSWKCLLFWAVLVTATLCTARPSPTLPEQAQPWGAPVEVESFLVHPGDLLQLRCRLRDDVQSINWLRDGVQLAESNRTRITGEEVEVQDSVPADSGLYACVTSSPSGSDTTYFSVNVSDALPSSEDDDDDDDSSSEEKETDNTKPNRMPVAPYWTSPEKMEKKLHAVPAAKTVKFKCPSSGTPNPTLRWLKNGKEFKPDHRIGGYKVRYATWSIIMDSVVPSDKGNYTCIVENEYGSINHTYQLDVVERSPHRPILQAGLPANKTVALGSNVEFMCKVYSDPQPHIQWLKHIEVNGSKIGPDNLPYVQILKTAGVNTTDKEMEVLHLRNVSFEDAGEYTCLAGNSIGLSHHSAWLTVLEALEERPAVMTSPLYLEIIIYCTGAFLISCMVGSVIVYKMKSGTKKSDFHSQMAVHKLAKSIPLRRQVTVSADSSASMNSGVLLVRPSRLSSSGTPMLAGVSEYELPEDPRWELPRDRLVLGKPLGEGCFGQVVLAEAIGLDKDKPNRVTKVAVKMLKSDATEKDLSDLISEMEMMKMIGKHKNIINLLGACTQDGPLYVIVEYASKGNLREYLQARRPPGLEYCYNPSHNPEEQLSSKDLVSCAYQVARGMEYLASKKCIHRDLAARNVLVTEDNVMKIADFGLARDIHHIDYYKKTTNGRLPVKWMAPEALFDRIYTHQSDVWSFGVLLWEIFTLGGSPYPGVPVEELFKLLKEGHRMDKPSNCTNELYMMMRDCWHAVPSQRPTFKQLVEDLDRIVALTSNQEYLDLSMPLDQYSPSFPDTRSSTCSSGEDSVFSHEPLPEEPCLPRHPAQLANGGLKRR
UniProt P22455: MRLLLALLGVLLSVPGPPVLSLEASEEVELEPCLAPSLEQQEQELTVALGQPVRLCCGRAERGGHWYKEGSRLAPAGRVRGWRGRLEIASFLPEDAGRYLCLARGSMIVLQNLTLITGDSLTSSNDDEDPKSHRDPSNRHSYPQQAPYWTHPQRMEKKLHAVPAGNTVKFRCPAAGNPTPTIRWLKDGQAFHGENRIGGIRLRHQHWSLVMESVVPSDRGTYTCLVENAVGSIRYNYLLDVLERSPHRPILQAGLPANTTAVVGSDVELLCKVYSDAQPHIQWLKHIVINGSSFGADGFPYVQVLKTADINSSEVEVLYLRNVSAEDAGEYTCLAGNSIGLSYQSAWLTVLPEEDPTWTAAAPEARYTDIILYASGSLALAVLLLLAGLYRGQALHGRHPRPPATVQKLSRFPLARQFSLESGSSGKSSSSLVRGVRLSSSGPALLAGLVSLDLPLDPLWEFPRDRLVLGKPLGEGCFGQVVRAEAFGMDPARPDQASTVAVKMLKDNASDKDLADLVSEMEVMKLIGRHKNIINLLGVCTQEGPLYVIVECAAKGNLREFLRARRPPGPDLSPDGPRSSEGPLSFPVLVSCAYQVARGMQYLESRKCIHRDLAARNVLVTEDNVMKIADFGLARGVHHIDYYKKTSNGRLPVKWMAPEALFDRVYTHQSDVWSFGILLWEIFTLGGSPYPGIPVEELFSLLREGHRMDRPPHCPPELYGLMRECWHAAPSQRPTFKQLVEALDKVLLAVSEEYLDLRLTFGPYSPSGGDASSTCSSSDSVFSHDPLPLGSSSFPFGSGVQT

Tests used:
[1] = target: FGFR1c/alpha-klotho on BaF3 cells (Example 12) (Homo sapiens (Human)) (UniProt P11362); experiment: competition with FGF23 on BaF3 cells expressing FGFR1c/alpha-klotho
[2] = target: FGFR4/alpha-klotho on BaF3 cells (Example 12) (Homo sapiens (Human)) (UniProt P22455); experiment: competition with FGF23 on BaF3 cells (FIG. 17B)
[3] = target: FGFR4/alpha-klotho on BaF3 cells (Example 12) (Homo sapiens (Human)) (UniProt P22455); experiment: competition with FGF23 on BaF3 cells expressing FGFR4/alpha-klotho
[4] = target: FGFR1c/alpha-klotho on BaF3 cells (Example 12) (Homo sapiens (Human)) (UniProt P11362); experiment: competition with FGF23 on BaF3 cells (FIG. 17A)

binding [1]: binds
binding [2]: binds
binding [3]: binds
binding [4]: binds
B1: Wild Type Human FGF23 c-tail 180-251 (72 amino acid peptide) (peptide)
peptide: SAEDDSERDPLNVLKPRARMTPAPASCSQELPSAEDNSPMASDPLGVVRGGRVNTHAGGTGPEGCRPFAKFI
